# Hit rate of the full screen: of about 330,000 compounds, about 610 (0.18%) were called active. The shares of active, inactive and inconclusive entries below differ from those in the screen. Calls follow the shape of the full dose curve. Potencies beside an inconclusive call are fits to weak or partial responses and may not hold up.
# Assay: qHTS of Yeast-based Assay for SARS-CoV PLP; also: nearly all actives have a fitted effect of over 55% in size; as to activity, positive = growth rescue: 0% is about no effect
# Conditions: S. cerevisiae expressing SARS-CoV PLpro; Potency: growth rescue; activity, positive = growth rescue: at 32.9 µM (top of the series)
# Potency is read from the fitted curve at half-maximal effect.
SMILES,"activity, positive = growth rescue",Potency
COc1ccc(CSCC(=O)Nc2ccccc2SC)cc1,inactive: 5.15%,–
O=C(NCC(c1cccnc1)N1CCOCC1)Nc1ccccc1 (configuration not stated),inactive: 3.81%,–
Cc1c(NC(=O)C(CC(=O)O)NCc2ccco2)c(=O)n(-c2ccccc2)n1C (configuration not stated),–,"inconclusive: 20 µM [activator, single point]"
O=C(CCCN1C(=O)/C(=C/c2cccs2)SC1=S)NNC(=O)c1ccccc1O,–,"inconclusive: 2.82 µM [activator, partial curve]"
Cc1cccc(N2C(=O)NC(=O)/C(=C\c3cccn3-c3ccc(Cl)cc3)C2=O)c1,inactive: 2.49%,–
Cc1ccc(-c2csc3nc[nH]c(=S)c23)cc1C,–,"inconclusive: 1.58 µM [activator, full curve, poor fit]"
Cc1ccc(-c2nc(CCNC(=O)c3ccco3)cs2)cc1,inactive: 3.6%,–
COc1ccc(S(=O)Cc2ccc(C(=O)N3CCN(c4cccc(C)c4C)CC3)o2)cc1 (configuration not stated),–,"inconclusive: 20 µM [activator, single point]"
Cc1ccc(NS(=O)(=O)c2ccc3[nH]c(=O)[nH]c3c2)cc1,–,"inconclusive: 3.55 µM [activator, full curve]"
CN(C)S(=O)(=O)Oc1ccsc1C(=O)Nc1ccc(Br)cc1,inactive: -21.1%,–
COCCNC(=O)c1cccc(OC2CCN(Cc3ccc(F)c(OC)c3)CC2)c1,–,"inconclusive: 4.47 µM [activator, partial curve]"
CC(C)(C)c1ccc(C(=O)NC(=S)Nc2ccc(N3CCOCC3)cc2)cc1,–,"inconclusive: 14.1 µM [activator, single point]"
COc1cccc(CCNC(=O)C2CCCN(c3ncnc4c3nc3n4CCCCC3)C2)c1OC (configuration not stated),–,"inconclusive: 20 µM [activator, single point]"
CC1CCCC(NC(=O)c2ccncc2)C1C (configuration not stated),–,"inconclusive: 2.82 µM [activator, single point]"
COC(=O)c1c(C)[nH]c(C(=O)C(C)OC(=O)C2CC2)c1C (configuration not stated),inactive: -6.83%,–
O=C(O)/C=C/C(=O)Nc1ccc(Cc2ccc(NC(=O)/C=C/C(=O)O)cc2)cc1,inactive: -4.14%,–
O=C(NCCCN1CCOCC1)c1ccc(NS(=O)(=O)c2ccccc2)cc1,–,"inconclusive: 20 µM [activator, single point]"
CCCCCCCCNCCS(=O)(=O)NN1CCOCC1,–,"inconclusive: 3.98 µM [activator, single point]"
O=C(NN1C(=O)c2ccccc2C1=O)C1CC2CCC1C2 (configuration not stated),–,"inconclusive: 22.4 µM [activator, partial curve]"
COc1ccc(CCN(C)C2CCCN(C(=O)CCC(F)(F)F)C2)cc1OC (configuration not stated),inactive: -2.55%,–
CC(=O)NC(c1ccccc1)c1cc(Cl)c2cccnc2c1O (configuration not stated),–,"inconclusive: 3.16 µM [activator, partial curve]"
O=C(C(=O)N1CCN(Cc2ccc3c(c2)OCO3)CC1)c1c[nH]c2ccccc12,–,"inconclusive: 3.98 µM [activator, single point]"
O=c1ccc(/C=C/c2ccccc2)nn1Cc1ccccc1Cl,–,"inconclusive: 4.47 µM [activator, single point]"
CC(C)(C)NC(=O)CSc1nnc(-c2ccncc2)n1Cc1ccccc1,inactive: 2.62%,–

SMILES,"activity, positive = growth rescue",Potency
Cc1cccc(OCCn2cc(/C=N/NC(=O)c3ccncc3)c3ccccc32)c1,–,"inconclusive: 20 µM [activator, single point]"
COc1ccccc1N(CC1CO1)S(=O)(=O)c1ccc(C)cc1 (configuration not stated),inactive: 1.72%,–
Cc1ccccc1C(N)c1ccncc1 (configuration not stated),inactive: 13.1%,–
Cn1c(-c2nonc2N)nc2ccccc21,inactive: 9.95%,–
Cc1nc2nc3c(cn2n1)C(=O)CCC3,–,"inconclusive: 3.98 µM [activator, single point]"
O=C(CSc1nncs1)Nc1ccc(Cl)cn1,–,"inconclusive: 15.8 µM [activator, partial curve]"
Cc1nc(CCNC(=O)C2CCC(=O)N(Cc3cccc(F)c3)C2)sc1C (configuration not stated),–,"inconclusive: 14.1 µM [activator, single point]"
Cc1ccc(CNC(=O)c2cn(C3CCCCC3)c(=O)c3c2c2ccccc2n3C)o1,–,"inconclusive: 3.16 µM [activator, single point]"
C/C(=N\NC(=O)CCCNc1ccc(C)cc1)c1ccccn1,–,"inconclusive: 20 µM [activator, single point]"
NC(=O)C1(N2CCCCC2)CCN(C(=S)Nc2cc(F)cc(F)c2)CC1,inactive: 0.755%,–
O=S(=O)(Cc1cnc(Cl)s1)c1ccccc1,–,active: 12.6 µM
Cc1ccc(C)c(-n2c(-c3cccnc3)n[nH]c2=S)c1,–,"inconclusive: 3.55 µM [activator, single point]"
Cn1c(CS/C(N)=N/N=C/c2ccccc2)c(Br)c(=O)n1-c1ccccc1,–,"inconclusive: 0.447 µM [activator, full curve, poor fit]"
COC(=O)c1sc(NC(=S)NC(=O)c2cccc(Br)c2)nc1C,–,"inconclusive: 2.51 µM [activator, single point]"
C=C(C)CN(CC)C(=O)c1ccc(OC2CCN(S(=O)(=O)N(C)C)CC2)cc1,inactive: -0.203%,–
CC1CN(C(=O)Nc2cccc(Cl)c2)C2(CCCCCC2)O1 (configuration not stated),inactive: -0.893%,–
CCCCCC(=O)N/N=C(\C)c1ccc(N2CCCCC2)cc1,–,active: 14.1 µM
O=C(NC1CCCc2ccccc21)c1cccc(S(=O)(=O)N2CCN(c3ccccc3)CC2)c1 (configuration not stated),–,"inconclusive: 0.316 µM [activator, full curve, poor fit]"
NC(=O)COc1ccc2oc(=O)cc(-c3cc4ccccc4o3)c2c1,–,"inconclusive: 1 µM [activator, partial curve]"
COc1ccc(C(C)NC(=S)NC2CCCCC2)cc1OC (configuration not stated),–,"inconclusive: 20 µM [activator, single point]"
O=C(N/N=C/c1cc(Br)c(O)c(Br)c1O)c1ccc2c(c1)OCCO2,–,"inconclusive: 15.8 µM [activator, single point]"
S=C(Nc1ccc(Cl)cc1)N1CCCCC1,–,"inconclusive: 3.98 µM [activator, full curve, poor fit]"
COc1ccc(N2C(=O)C3C(c4ccc(OC)cc4O)NC(Cc4ccccc4)(C(=O)O)C3C2=O)cc1 (configuration not stated),inactive: 0.702%,–
COc1cc(CNCc2cccc3ccccc23)cc(OC)c1,–,"inconclusive: 3.98 µM [activator, single point]"

SMILES,"activity, positive = growth rescue",Potency
Cc1cc(Br)c(S(=O)(=O)NCc2ccncc2)cc1C,–,"inconclusive: 10 µM [activator, partial curve]"
O=C(Nc1ccccc1)c1ccc(S(=O)(=O)N2CCOCC2)cc1,–,"inconclusive: 0.398 µM [activator, partial curve, poor fit]"
CN(C)c1nc(OCCNC(=O)COc2ccccc2Cl)nc(N(C)C)n1,–,"inconclusive: 4.47 µM [activator, single point]"
Cc1cc(Br)c(NC(=O)COC(=O)c2ccc[n+]([O-])c2)c(Br)c1,inactive: 4.24%,–
Cc1ccccc1NC(=O)CCCN1C(=O)C2CC=CCC2C1=O (configuration not stated),–,"inconclusive: 14.1 µM [activator, single point]"
Cc1cccc(CN2CCC(n3nccc3NC(=O)c3ccccc3C)CC2)n1,–,"inconclusive: 20 µM [activator, single point]"
Cc1cc(NC(=O)c2ccc(S(=O)(=O)N3CCCC3)cc2)nc2c1c(=O)oc1ccccc12,–,"inconclusive: 4.47 µM [activator, single point]"
COc1cccc(O)c1CN1CCC(n2nccc2NC(=O)c2ccc3c(c2)OCO3)CC1,–,"inconclusive: 20 µM [activator, single point]"
COCC1CCCN(Cc2cn(Cc3ccccc3)nc2-c2cc3ccccc3o2)C1 (configuration not stated),inactive: -0.103%,–
C=C1CSc2nc(=O)c3c4c(sc3n21)CCC4,–,"inconclusive: 11.2 µM [activator, single point]"
CC(=O)Nc1ccc(NC(=O)C/C(C)=N/NC(=O)COc2cc(C)c(Br)cc2Br)cc1,inactive: -6.3%,–
COC(=O)C1=C(C)NC(C)=C(C(=O)OC)C1c1ccccc1[N+](=O)[O-],–,active: 2 µM
Cc1cccc(C)c1NC(=O)C1(C)c2cccc[n+]2CC(=O)N1Cc1cccs1 (configuration not stated),–,"inconclusive: 20 µM [activator, single point]"
CCOC(=O)C1CCN(c2cc3c(cc2NC(=O)c2ccccc2F)n(C)c(=O)n3C)CC1,–,"inconclusive: 4.47 µM [activator, single point]"
CCOc1ccc(CCNC(=O)COC(=O)c2ccncc2)cc1OCC,inactive: 1.58%,–
CCCCOc1ccc(C(=O)NCC2(c3ccc(OC)cc3)CCOCC2)cc1,inactive: 2.5%,–
c1ccc2c(c1)nnn2CNc1nccs1,–,"inconclusive: 4.47 µM [activator, single point]"
O=C(O)CN1C(=O)NC2(CCc3ccccc32)C1=O (configuration not stated),–,"inconclusive: 11.2 µM [activator, single point]"
O=S(=O)(c1cccs1)N1CCN(c2ncccn2)CC1,–,"inconclusive: 3.55 µM [activator, partial curve]"
Cc1ccc(CNC(=O)C2CCC(=O)N(CCc3cccc(F)c3)C2)cc1 (configuration not stated),–,"inconclusive: 0.316 µM [activator, full curve, poor fit]"
Cc1cccc(C)c1NC(=S)N/N=C/c1ccc(OCCC(C)C)cc1,–,"inconclusive: 10 µM [activator, partial curve]"
COc1ccc(CCN2C(=O)CC(NNC(=O)c3ccccc3Br)C2=O)cc1 (configuration not stated),–,"inconclusive: 10 µM [activator, partial curve]"
CC(C)c1c(C(=O)N/N=C/C2CC=CCC2)nnn1-c1nonc1N (configuration not stated),–,"inconclusive: 4.47 µM [activator, single point]"
CN1CCC(=O)N([C@H](CO)c2ccccc2)CC1,inactive: 1.46%,–

# 13 compounds from above, ordered by SMILES length, rising:
SMILES,"activity, positive = growth rescue",Potency
Cc1ccccc1C(N)c1ccncc1 (configuration not stated),inactive: 13.1%,–
Cc1nc2nc3c(cn2n1)C(=O)CCC3,–,"inconclusive: 3.98 µM [activator, single point]"
C=C1CSc2nc(=O)c3c4c(sc3n21)CCC4,–,"inconclusive: 11.2 µM [activator, single point]"
CN1CCC(=O)N([C@H](CO)c2ccccc2)CC1,inactive: 1.46%,–
Cc1ccc(C)c(-n2c(-c3cccnc3)n[nH]c2=S)c1,–,"inconclusive: 3.55 µM [activator, single point]"
CN(C)S(=O)(=O)Oc1ccsc1C(=O)Nc1ccc(Br)cc1,inactive: -21.1%,–
COC(=O)c1sc(NC(=S)NC(=O)c2cccc(Br)c2)nc1C,–,"inconclusive: 2.51 µM [activator, single point]"
CC(C)(C)NC(=O)CSc1nnc(-c2ccncc2)n1Cc1ccccc1,inactive: 2.62%,–
CCCCOc1ccc(C(=O)NCC2(c3ccc(OC)cc3)CCOCC2)cc1,inactive: 2.5%,–
Cc1ccc(CNC(=O)C2CCC(=O)N(CCc3cccc(F)c3)C2)cc1 (configuration not stated),–,"inconclusive: 0.316 µM [activator, full curve, poor fit]"
O=C(CCCN1C(=O)/C(=C/c2cccs2)SC1=S)NNC(=O)c1ccccc1O,–,"inconclusive: 2.82 µM [activator, partial curve]"
CC(=O)Nc1ccc(NC(=O)C/C(C)=N/NC(=O)COc2cc(C)c(Br)cc2Br)cc1,inactive: -6.3%,–
COc1ccc(N2C(=O)C3C(c4ccc(OC)cc4O)NC(Cc4ccccc4)(C(=O)O)C3C2=O)cc1 (configuration not stated),inactive: 0.702%,–
